Earlier results as cited in patent EP1694242B1, “PROCESS FOR MAKING PHARMACEUTICAL 7-(2-TRIMETHYLSILYLETHYL) CAMPTOTHECIN FORMULATIONS” (BIONUMERIK PHARMACEUTICALS, INC., priority 2003, dated 2005).

Details: closed E-ring lactone form; background statement

SMILES: CC[C@@]1(O)C(=O)OCc2c1cc1n(c2=O)Cc2cc3ccccc3nc2-1 [CPT, Camptothecin]
- water soluble (amount of drug dissolving in water): approximately 0.1 microgram of drug dissolving in 1 mL of water
